Experimental data: patent publication EP0444898A1 (MERCK & CO. INC., priority 1990, dated 1991)
Several values for one entry are separate records, joined by “and”; a condition that tells them apart may be missing. Equal values may be shown once.

Experiment: general procedure: Boc solid-phase peptide synthesis; chloromethylated resin (Merrifield resin); Boc-L-Pro-O-(PAM)-resin; BOP reagent/DIEA for some couplings; acid chloride coupling
Details: for isolated mass: scale 1 mmole
[1] = late stage modification step, HPLC (Method G), head-to-tail ring
[2] = whole synthesis, 210 nM, scale of the general procedure 1 mmole
[3] = late stage modification step, 214 nM, head-to-tail ring
[4] = whole synthesis, 214 nM, scale of the general procedure 1 mmole, head-to-tail ring
[5] = whole synthesis, 210 nM, scale of the general procedure 1 mmole, head-to-tail ring
[6] = whole synthesis, HPLC (Method G), scale of the general procedure 1 mmole, head-to-tail ring
[7] = late stage modification step, 210 nM, head-to-tail ring
[8] = late stage modification step, HPLC (Method G)
[9] = whole synthesis, HPLC (Method G), scale of the general procedure 1 mmole
[10] = whole synthesis, scale of the general procedure 1 mmole

In the case of “c-[D-Phenylalanyl-L-isoleucinyl-D-pipecolyl-L-piperazin-2-yl-D-histidinyl (BOM)-L-prolyl]”, the “final HPLC purity” value [1] is reported as greater than 96%.

For “c-[D-Phenylalanyl-L-isoleucinyl-D-piperazin-2-yl-(4-Cbz)-L-pipecolyl-D-phenylalanyl-L-prolyl]”, the “final HPLC purity” value (whole synthesis, 214 nM, head-to-tail ring) was greater than 95%.

With “c-[D-Phenylalanyl-L-isoleucinyl-D-piperazin-2-yl-(4-Cbz)-L-piperazin-2-yl(4-Cbz)-D-(N^α-methyl)phenylalanyl -L-prolyl]” the “final HPLC purity” value [2] was greater than 94%.

With “c-[D-Phenylalanyl-L-isoleucinyl-D-piperazin-2-yl-L-pipecolyl-D-phenyalanyl-L-prolyl]” the “final HPLC purity” value [3] was greater than 97.6%.

With “c-[D-Phenylalanyl-L-isoleucinyl-D-prolyl-L-cis-hydroxyprolyl-D-phenylalanyl-L-prolyl]” the “final HPLC purity” value [4] was 98%.

In the case of “c-[D-Phenylalanyl-L-isoleucinyl-D-prolyl-L-piperazin-2-yl(4-Cbz)-D-phenylaianyl-L-prolyl]”, the “final HPLC purity” value [5] is reported as 95%.

In the case of “c-[D-Phenylalanyl-L-isoleucinyl-D-prolyl-L-piperazin-2-yl-D-phenylalanyl-L-prolyl]”, the “final HPLC purity” value (late stage modification step, 254 nM, head-to-tail ring) is reported as greater than 97%.

For “c-[D-Phenylalanyl-L-isoleucinyl-D-prolyl-cis-D-hydroxyprolyl-D-phenylalanyl-L-prolyl]”, the “final HPLC purity” value [4] was 99%.

With “c-[D-Phenylalanyl-L-isoleucyl-D-(Ns-Boc)-ornithyl-L-pipecolyl-N-methyl-D-phenylalanyl-L-prolyl]” the “final HPLC purity” value [6] was 97.0% pure.

In the case of “c-[D-Phenylalanyl-L-isoleucyl-D-glutamyl-L-asparagyl-D-phenylalanyl-L-prolyl]”, the “final HPLC purity” value [6] is reported as 90.0% pure.

With “c-[D-Phenylalanyl-L-isoleucyl-D-pipecolyl(O-tert-bytyl)-L-aspartyl-N-methyl-D-phenylalanyl-L-prolyl]” the “final HPLC purity” value [6] was 94.7% pure.

For “c-[D-Phenylalanyl-L-isoleucyl-D-pipecolyl-L-2,3-diaminopropionyl-N-methyl-D-phenylalanyl-L-prolyl]”, the “final HPLC purity” value [1] was 99.7% pure.

In the case of “c-[D-Phenylalanyl-L-isoleucyl-D-pipecolyl-L-aspartyl-N-methyl-D-phenylalanyl-L-prolyl]”, the “final HPLC purity” value [1] is reported as 90.4% pure.

With “c-[D-Phenylalanyl-L-isoleucyl-D-pipecolyl-L-pipecolyl-D-N-methyl-phenylalanyl-L-prolyl]” the “final HPLC purity” value [6] was 93.8% pure.

For “c-[D-Phenylalanyl-L-isoleucyl-D-pipecolyl-L-pipecolyl-D-phenylalanyl-L-prolyl]”, the “final HPLC purity” value [6] was 95.8% pure.

For “c-[D-Phenylalanyl-L-isoleucyl-D-pipecolyl-L-pipecolyl-N-allyl-D-phenylalanyl-L-prolyl]”, the “final HPLC purity” value [6] was 96.0% pure.

In the case of “c-[D-Phenylalanyl-L-isoleucyl-D-pipecolyl-Nβ-(imidazolylethyl)-L-asparagyl-N-methyl-D-phenylalanyl-L-protyl]”, the “final HPLC purity” value [1] is reported as 99.4% pure.

For “c-[D-Phenylalanyl-L-isoleucyl-D-piperazyl-L-pipecolyl-N-methyl-D-phenylalanyl-L-prolyl]”, the “final HPLC purity” value [6] was 97.0% pure.

In the case of “c-[D-Phenylalanyl-L-isoleucyl-D-prolyl-L-prolyl-D-cysteinyl(Acm)-L-prolyl]”, the “final HPLC purity” value [2] is reported as 99%.

With “c-[D-Phenylalanyl-L-isoleucyl-D-prolyl-L-prolyl-D-threoninyl-L-prolyl]” the “final HPLC purity” value [5] was 99.74%.

With “c-[D-Phenylalanyl-L-isoleucyl-D-prolyl-L-prolyl-N-methyl-D-phenylalanyl-L-prolyl]” the “final HPLC purity” value [5] was greater than 99%.

In the case of “c-[D-Phenylalanyl-L-isoleucyl-D-prolyl-L-proyl-D-α-glutaminyl-glycyl]”, the “final HPLC purity” value [4] is reported as 99%.

In the case of “c-[D-Phenylalanyl-L-isoleucyl-D-prolyl-L-seryl-N-methyl-D-phenylalanyl-L-prolyl]”, the “final HPLC purity” value [6] is reported as 97.8% pure.

In the case of “c-[D-Phenylalanyl-L-isoleucyl-D-prolyl-L-transhydroxyprolyl-D-phenylalanyl-L-prolyt]”, the “final HPLC purity” value [4] is reported as 98%.

With “c-[D-Phenylalanyl-L-isoleucyl-D-prolyl-dehydroalanyl-N-methyl-D-phenylalanyl-L-prolyl]” the “final HPLC purity” value [1] was 98.2% pure.

For “c-[D-Phenylalanyl-L-isoleucyl-D-Δ-piperazyl-L-Lysyl-N-Me-D-phenylalanyl-L-prolyl]”, the “final HPLC purity” value [1] was greater than 98%.

For “c-[D-Phenylalanyl-L-isoleucyl-D-Δ-piperazyl-L-pipecolyl-N-methyl-D-phenylalanyl-L-prolyl]”, the “final HPLC purity” value [1] was 97.4% pure.

In the case of “c-[D-Phenylalanyl-L-isoleucyl-L-glutamyl-L-asparagyl-D-phenylalanyl-L-prolyl]”, the “final HPLC purity” value [6] is reported as 99.4% pure.

In the case of “c-[D-Phenylalanyl-L-isoleucyl-N-methyl-D-alanyl-N-methyl-L-alanyl-D-phenylalanyl-L-prolyl]”, the “final HPLC purity” value [5] is reported as 99%.

With “c-[D-Phenylalanyl-L-phenylglycyl-D-prolyl-L-prolyl-D-phenylalanyl-L-prolyl]” the “final HPLC purity” value [4] was 99%.

With “c-[D-Phenylalanyl-L-prolyl-D-prolyl-L-prolyl-D-phenylalanyl-L-prolyl]” the “final HPLC purity” value [4] was 97%.

With “c-[D-Phenylalanyl-L-threoninyl-D-prolyl-L-prolyl-D-phenylalanyl-L-prolyl]” the “final HPLC purity” value [3] was 97%.

In the case of “c-[D-Phenylalanyl-N-methyl-L-isoleucyl-D-pipecolyl-L-pipecolyl-N-methyl-D-phenylalanyl-L-prolyl]”, the “final HPLC purity” value [6] is reported as 98.4% pure.

In the case of “c-[D-Phenylatanyl-L-isoleucyl-D-prolyl-L-prolyl-D-cysteinyl(Bzl)-L-prolyl]”, the “final HPLC purity” value [2] is reported as 97.5%.

With “c-[D-Tryptophanyl(t-butylacetyl)-L-isoleucinyl-D-pipecolyl-L-piperazin-2-yl(4-t-butylacetyl)-D-(Na-Me)phenyla lanyl-L-prolyl]” the “final HPLC purity” value [7] was greater than 98%.

In the case of “c-[D-Tryptophanyl-L-isoleucinyl-D-pipecolyl-L-piperazin-2-yl(4-dibenzylphosphoramidyl)-D-(N^α-Me)phenylal anyl-L-prolyl]”, the “final HPLC purity” value (late stage modification step, 210 nM) is reported as greater than 96%.

With “c-[D-Tryptophanyl-L-isoleucinyl-D-pipecolyl-L-piperazin-2-yl-D-(Nα-methyl)phenylalanyl-L-prolyl]” the “final HPLC purity” value [7] was greater than 97%.

With “c-[D-Tryptophanyl-L-isoleucinyl-D-pipecolyl-L-piperazin-2-yl-D-phenylalanyl-L-prolyl]” the “final HPLC purity” value [7] was greater than 98.5%.

For “c-[D-Tryptophanyl-L-isoleucinyl-D-Δ-piperazyl-L-pipecolyl-D-histidyl-L-prolyl]”, the “final HPLC purity” value [5] was greater than 97%.

With “c-[D-Tryptophanyl-L-isoleucinyl-D-Δ-piperazyl-L-piperazin-2-yl(4-Cbz)-N-Me-D-phenylalanyl-L-prolyl]” the “final HPLC purity” value (whole synthesis, 259 nM, scale of the general procedure 1 mmole, head-to-tail ring) was greater than 98.4%.

In the case of “c-[D-Tryptophanyl-L-isoleucinyl-D-Δ-piperazyl-L-piperazin-2-yl-N^α-Me-D-phenylalanyl-L-prolyl]”, the “final HPLC purity” value [8] is reported as greater than 96%.

With “c-[D-Tryptophanyl-L-isoleucyl-D-pipecolyl-(Nδ-Boc)-L-ornithyl-D-histidyl-L-prolyl] acetate salt” the “final HPLC purity” value (whole synthesis, HPLC (Method G), scale of the general procedure 1 mmole, acetate salt) was 92.2%.

For “c-[D-Tryptophanyl-L-isoleucyl-D-pipecolyl-L-lysyl-D-(N-methyl)phenylalanyl-L-prolyl]”, the step yield (late stage modification step) was 48% and the “crude HPLC purity” value [8] was 99%.

For “c-[D-Tryptophanyl-L-isoleucyl-D-pipecolyl-L-pipecolyl-D-(N-methyl)tyrosyl-L-prolyl]”, the “final HPLC purity” value [8] was 99% and the step yield (late stage modification step, run 1) was 94% and 53%.

With “c-[D-Trytophanyl-L-isoleucinyl-D-pipecolyl-L-piperazin-2-yl-D-tryptophanyl-L-prolyl]” the “final HPLC purity” value [7] was greater than 97.7%.

For “c-[D-Tyr-L-Ile-D-Pip-L-(Boc)Lys-D-(N-Me )-Phe-L-Pro]”, the step yield (late stage modification step) was 71% and the “crude HPLC purity” value [8] was 99%.

For “c-[D-phenylalanyl-L-isoleucyl-D-pipecolyl-L-pipecolyl-N-methyl-D-phenylalanyl-L-pipecolyl]”, the “final HPLC purity” value [6] was 98.3% pure.

With “c-[D-phenylalanyl-L-isoleucyl-D-pipecolyl-L-pipecolyl-N-methyl-D-phenylalanyl-N-methyl-L-alanyl]” the “final HPLC purity” value [6] was 95.1% pure.

In the case of “c-[D-phenylalanyl-L-isoleucyl-D-Δ-piperazyl-L-arginyl-D-(Nα-methyl)-phenylalanyl-L-prolyl]trifluoroacetate salt”, the “final HPLC purity” value (late stage modification step, HPLC (Method G), trifluoroacetate salt) is reported as 93.2%.

With “c-[L-Phenylalanyl-D-isoleucyl-L-prolyl-D-prolyl-L-phenylalanyl-D-prolyl]” the “final HPLC purity” value [5] was 100%.

With “c-[L-prolyl-D-phenylalanyl-L-isoleucyl-D-piperazyl L-piperazyl-D-phenylalanyl]” the “final HPLC purity” value [1] was 96% pure.

With “c-[N-Me-D-Alanyl-L-isoleucyl-D-pipecolyl-L-pipecolyl-N-Me-D-phenylalanyl-L-prolyl]” the “final HPLC purity” value [5] was greater than 96.5%.

For “c-[N-Me-D-Homophenylaianyl-N-Me-L-isoleucyl-D-pipecolyl-N-Me-D-phenylalanyl-L-prolyi]”, the “final HPLC purity” value (late stage modification step, 215 nM, head-to-tail ring) was greater than 97.5% and the step yield (late stage modification step, head-to-tail ring) was 22.5%.

For “c-[Phenytatanyl-L-isoieucinyf-D-piperazin-2-yl(4-Cbz)-D-piperazin-2-yl(4-Cbz)-D-(N^α-methyl)phenylaianyl-L-prolyl]”, the “final HPLC purity” value [2] was greater than 99%.

In the case of “cyclo[D-2-Nal-L-Ile-D-Pip-L-Pip-D-His-L-Pro]”, the “final HPLC purity” value [9] is reported as “purity 99%”, the isolated mass (whole synthesis) is reported as 120 mg and the isolated yield [10] is reported as 12%.

For “cyclo[D-His-L-Ile-D-Pip-L-Pip-D-(NαMe)Phe-L-Pro]”, the “final HPLC purity” value [9] was “purity 99%”, the isolated mass (whole synthesis) was 242 mg and the isolated yield [10] was 26%.
